This assay addresses Axin (endogenous, HEK293T cells) (human (endogenous in HEK293T)) (UniProt O15169). Briefly: co-IP; endogenous Axin and γ-tubulin in HEK293T cells.

The chains behind the UniProt entries cited, without tags or fusion partners. Where a name states a change or a piece, a line headed by the entry shows the natural chain unless it says otherwise.
UniProt O15169: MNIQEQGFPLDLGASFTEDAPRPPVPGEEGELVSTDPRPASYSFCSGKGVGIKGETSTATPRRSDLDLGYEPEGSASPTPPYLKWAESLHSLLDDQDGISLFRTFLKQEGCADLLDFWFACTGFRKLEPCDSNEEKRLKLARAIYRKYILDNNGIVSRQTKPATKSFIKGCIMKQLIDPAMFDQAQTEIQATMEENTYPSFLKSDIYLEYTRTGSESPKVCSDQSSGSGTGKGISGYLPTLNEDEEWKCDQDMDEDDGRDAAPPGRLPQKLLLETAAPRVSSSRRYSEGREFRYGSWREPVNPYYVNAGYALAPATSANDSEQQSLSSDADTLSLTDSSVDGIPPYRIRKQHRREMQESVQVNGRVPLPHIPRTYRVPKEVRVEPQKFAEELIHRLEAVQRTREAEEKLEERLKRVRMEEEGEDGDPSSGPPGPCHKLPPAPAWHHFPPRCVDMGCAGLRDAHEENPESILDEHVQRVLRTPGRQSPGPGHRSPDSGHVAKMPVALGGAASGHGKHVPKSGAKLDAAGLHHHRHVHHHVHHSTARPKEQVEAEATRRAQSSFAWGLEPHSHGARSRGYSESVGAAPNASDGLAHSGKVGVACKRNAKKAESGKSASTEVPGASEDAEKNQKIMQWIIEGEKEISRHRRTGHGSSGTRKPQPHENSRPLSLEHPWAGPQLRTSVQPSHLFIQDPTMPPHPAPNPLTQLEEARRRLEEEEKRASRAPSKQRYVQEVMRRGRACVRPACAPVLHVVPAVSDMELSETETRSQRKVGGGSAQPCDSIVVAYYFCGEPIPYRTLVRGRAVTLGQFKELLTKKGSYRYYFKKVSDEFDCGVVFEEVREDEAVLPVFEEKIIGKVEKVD
UniProt P23258: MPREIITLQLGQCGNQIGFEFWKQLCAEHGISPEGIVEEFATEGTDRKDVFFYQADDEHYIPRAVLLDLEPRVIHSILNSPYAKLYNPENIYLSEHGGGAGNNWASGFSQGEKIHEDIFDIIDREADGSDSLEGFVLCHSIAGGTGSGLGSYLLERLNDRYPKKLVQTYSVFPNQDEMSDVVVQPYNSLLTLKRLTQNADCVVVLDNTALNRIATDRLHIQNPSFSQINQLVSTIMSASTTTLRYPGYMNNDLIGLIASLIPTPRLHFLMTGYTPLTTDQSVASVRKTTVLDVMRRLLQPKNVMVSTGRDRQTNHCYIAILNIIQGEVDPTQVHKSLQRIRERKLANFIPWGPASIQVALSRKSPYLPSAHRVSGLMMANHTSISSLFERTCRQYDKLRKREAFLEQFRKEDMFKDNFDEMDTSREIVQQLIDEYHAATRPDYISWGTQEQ

These are yes or no findings as the source states them, for the method shown. In cells and extracts the contact can be indirect. A result given as binding can be weak or reduced; the word gives no strength.

In the case of “γ-tubulin (endogenous, HEK293T cells) (from UniProt P23258)”, the binding result is recorded as “binds”.
